Experimental data taken from patent publication US8946453B2, “Chemical compounds” (Syngenta Participations AG, priority 2011, dated 2015).
Some of these results come from one statement about several compounds together.

Columns and labels:
Assay type in all cases: in vivo
[1] = system: Aphis Craccivora (Cowpea Aphid); assay: Translaminar activity against Aphis craccivora (French bean leaves); conditions: 400 ppm; upper leaf side painted; mortality 5 days later
[2] = system: Myzus persicae (Green Peach Aphid); assay: Drench activity against Myzus persicae (pea seedlings in field soil); conditions: 25 ppm; drench application; mortality 7 days after infestation
[3] = system: Tetranychus urticae (Two-Spotted Spider Mite); assay: Activity against Tetranychus urticae, mixed population, feeding/residual contact, preventive (bean leaf discs); conditions: 400 ppm; egg, larval and adult mortality checked 8 days later
[4] = system: Aphis Craccivora (Cowpea Aphid); assay: Activity against Aphis craccivora, mixed population, systemic/feeding (pea seedling roots in test solution); conditions: 25 ppm; mortality 6 days later
[5] = system: Nilaparvata lugens (Brown Rice Planthopper); assay: Activity against Nilaparvata lugens, larvicide, feeding/contact (rice seedlings); conditions: 400 ppm; 6-12 days after treatment; mortality, growth regulation, effects on F1 generation
[6] = system: Bemisia tabaci (Tobacco White Fly); assay: Activity against Bemisia tabaci, larvicide, contact/feeding (bean plants); conditions: 200 ppm; number of emerged adults three weeks later, treated versus non treated
[7] = system: Aphis Craccivora (Cowpea Aphid); assay: Activity against Aphis craccivora, mixed population, contact/feeding (pea seedlings, spray); conditions: 400 ppm; mortality 6 days after treatment
[8] = system: Thrips tabaci (Onion Thrips); assay: Activity against Thrips tabaci, mixed population, feeding/residual contact, preventive (sunflower leaf discs); conditions: 400 ppm; mortality checked after 6 days

Measured: activity

CON1CCC(CC2NC(=O)C(c3cc(C)ccc3C)=C2O)CC1 (centres unmarked) [Compound P2.2, 3-(2,5-dimethyl-phenyl)-4-hydroxy-5-(1-methoxy-piperidin-4-ylmethyl)-1,5-dihydro-pyrrol-2-one]
over 80%: [1] | [2] | [3] | [4] | [5]

CCOC(=O)OC1=C(c2c(C)cc(C)cc2C)C(=O)OC1C1CCN(OC)CC1 (centres unmarked) [Compound P1.15]
not listed: [3] | [8]
over 80%: all other assays above

CCOC(=O)OC1=C(c2c(C)cc(C)cc2C)C(=O)NC1C1CCN(OC)CC1 (centres unmarked) [Compound P1.12, carbonic acid ethyl ester 2-(1-methoxy-piperidin-4-yl)-5-oxo-4-(2,4,6-trimethyl-phenyl)-2,5-dihydro-1H-pyrrol-3-yl ester]
over 80%: [1] | [3] | [5]

Cc1ccc(C)c(C2C(=O)NC(CC3CCS(=O)(=NC(=O)C(F)(F)F)CC3)C2=O)c1 (centres unmarked) [Compound P2.8]
over 80%: [3]

CCOC(=O)OC1=C(c2c(C)cc(C)cc2C)C(=O)NC1CC1CCN(OC)CC1 (centres unmarked) [Compound P1.10]
not listed: [3] | [8]
over 80%: all other assays above

CON1CCC(CC2NC(=O)C(c3c(C)cc(C)cc3C)C2=O)CC1 (centres unmarked) [Compound P2.13]
over 80%: [8] | [3]

Cc1cc(C)c(C2C(=O)NC(C3CCOCC3)C2=O)c(C)c1 (centres unmarked) [Compound P2.3]
over 80%: [8] | [3]

CON1CCC(C2OC(=O)C(c3c(C)cc(C)cc3C)C2=O)CC1 (centres unmarked) [Compound P2.17]
not listed: [3] | [8]
over 80%: all other assays above

CCOC(=O)OC1=C(c2c(C)cc(C)cc2C)C(=O)N(C)C1CC1CCN(OC)CC1 (centres unmarked) [Compound P1.13]
over 80%: [8]
